# Reference: PubChem BioAssay AID1487 (National Center for Advancing Translational Sciences (NCATS), 2009)
# Some of the results follow. Shown are side measurements of this screen, not its main read-out; they come without a call. Compounds called inactive in the main read-out are mostly missing here. Words in brackets tell the shape of the fitted curve; partial curves, single points and poor fits give uncertain potencies.
# Test: qHTS Assay for Modulators of Lamin A Splicing
# Settings: HeLa LMNA splicing GFP/RFP minigene ratio, 48 h
# Outline: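 S3 HeLa cells stably expressing lamin A-EGFP splicing minigene plus DsRed2, 600 cells/well, 48 h compound exposure at 37C. Laser-scanning cytometry; analysed as GFP (500-530 nm)/RFP (575-640 nm) total intensity ratio; 0.5% DMSO vehicle.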
# [1] = measured here: RFP viability control channel
# [2] = measured here: GFP splicing reporter channel
Structure (SMILES),AC50 [1],AC50 [2]
Cc1ccc(CN2CCN(C3CCN(C(=O)Nc4ccccc4C(F)(F)F)CC3)C(=O)C2=O)cc1,"35.5 µM [rising, single point]",–
Cc1cccc(C(=O)NC(=S)N2CCc3ccccc3C2)c1,"10 µM [rising, partial curve]",–
COc1cccc(Nc2ncc3nc(-c4ccccc4)c(=O)n(Cc4cccs4)c3n2)c1,"22.4 µM [falling, partial curve, poor fit]","22.4 µM [falling, partial curve, poor fit]"
Cc1ccc(-c2csc(N/N=C/c3ccco3)n2)c(C)c1,"3.98 µM [rising, full curve]",–
O=C(Nc1cccc(NS(=O)(=O)c2ccc(S(=O)(=O)NC3CC3)cc2)c1)c1ccccn1,"12.6 µM [rising, partial curve, poor fit]","8.91 µM [rising, partial curve, poor fit]"
CC(C)NC(=O)C1CCCN(c2ncnc3c2nc2n3CCCCC2)C1 (stereo unspecified),–,"0.0224 µM [falling, full curve, poor fit]"
CCCCc1nc2ccccc2c(NC(=O)CN2CCN(C)CC2)c1CCC,"0.0158 µM [falling, full curve, poor fit]",–
CCc1ccc(C2=NNC(=Nc3cccc(S(=O)(=O)N(C)C)c3)SC2)cc1,"7.08 µM [rising, partial curve]",–
CSCc1nnc(NC(=O)c2ccc(S(=O)(=O)N(CC(C)C)CC(C)C)cc2)o1,"22.4 µM [falling, single point]",–
O=S(=O)(c1ccc(-c2csc(-c3cccnc3)n2)cc1)N1CCOCC1,"3.55 µM [falling, single point]",–
CC(CNS(=O)(=O)c1ccc2c(c1)CC(=O)N2C)c1ccccc1 (stereo unspecified),"35.5 µM [rising, partial curve, poor fit]","14.1 µM [rising, partial curve, poor fit]"
COc1ccc(NC(=S)Nc2ncccc2C)cc1OC,"0.00316 µM [falling, full curve, poor fit]",–
CCOc1ccccc1NC(=S)Nc1ncccc1C,"35.5 µM [rising, single point]",–
COC(=O)/C(=C/c1c[nH]c2ccccc12)NC(C)=O,"35.5 µM [falling, single point]","31.6 µM [falling, single point]"
O=C(Nc1nc(-c2cccs2)cs1)c1ccc(Cl)cc1,"14.1 µM [rising, single point]",–
O=C(NCc1cccn1Cc1ccccc1)Nc1cccc(C(F)(F)F)c1,"11.2 µM [falling, partial curve, poor fit]","35.5 µM [falling, single point]"
O=C(NCCCN=C1NS(=O)(=O)c2ccccc21)c1ccc(S(=O)(=O)N2CCCCC2)cc1,"15.8 µM [rising, single point]",–
CCOc1cccc(C2c3[nH]c4ccccc4c3CCN2C(=O)c2ccccc2F)c1 (stereo unspecified),"20 µM [rising, partial curve, poor fit]","0.316 µM [rising, full curve, poor fit]"
Brc1ccc(Sc2cnc3ccccc3n2)cc1,–,"3.55 µM [rising, partial curve, poor fit]"

# Some of the entries so far, as tab-separated lines.
Structure (SMILES)	AC50 [1]	AC50 [2]
O=C(Nc1nc(-c2cccs2)cs1)c1ccc(Cl)cc1	14.1 µM [rising, single point]	–
O=C(NCc1cccn1Cc1ccccc1)Nc1cccc(C(F)(F)F)c1	11.2 µM [falling, partial curve, poor fit]	35.5 µM [falling, single point]
O=C(NCCCN=C1NS(=O)(=O)c2ccccc21)c1ccc(S(=O)(=O)N2CCCCC2)cc1	15.8 µM [rising, single point]	–

# The listing continues.

Structure (SMILES),AC50 [1],AC50 [2]
COc1cc(OC)c(S(=O)(=O)NCc2cccnc2)cc1NC(C)=O,–,"0.398 µM [falling, full curve, poor fit]"
Cc1ccc(NC(=O)c2ccccc2NS(=O)(=O)c2ccc(Cl)s2)cc1S(=O)(=O)N1CCOCC1,"3.16 µM [rising, full curve]","3.16 µM [rising, full curve]"
CC(=O)Nc1c(I)c(NC(C)=O)c(I)c(C(=O)O)c1I,"0.00447 µM [falling, full curve, poor fit]",–
O=C(NCc1cccn1Cc1ccccc1)Nc1ccc(Br)cc1F,–,"22.4 µM [falling, partial curve, poor fit]"
CCOC(=O)N1CCN(C(=O)c2cc3c(-c4ccc(Cl)cc4)nn(C)c3s2)CC1,–,"35.5 µM [rising, single point]"
O=C(NCc1ccc(Cl)cc1)c1ccc(-c2ccccc2C(F)(F)F)o1,"31.6 µM [rising, single point]","20 µM [rising, single point]"
N#CCCn1cc(C=O)c(-c2cccs2)n1,"0.0141 µM [falling, full curve, poor fit]",–
COc1ccc(OC2C(=O)N(Cc3ccc4c(c3)OCO4)C2c2sccc2C)cc1 (stereo unspecified),–,"12.6 µM [falling, partial curve]"
COC(=O)c1ccc(NC(=S)Nc2cccc(C)n2)cc1,–,"35.5 µM [rising, partial curve, poor fit]"
CCC1CCCCN1C(=O)CSc1nnc(-c2cccc(Cl)c2)o1 (stereo unspecified),"22.4 µM [rising, single point]",–
O=C(Nc1ccncc1)Nc1ccccn1,"12.6 µM [falling, single point]",–
COc1cc2nc(N3CCN(C(=O)OCc4ccccc4)C(C(=O)NC(C)(C)C)C3)nc(N)c2cc1OC (stereo unspecified),–,"12.6 µM [falling, partial curve]"
O=C(CN1C(=O)c2cccc3cccc1c23)N1CCc2ccccc2C1,"3.16 µM [rising, partial curve]",–
COC(=O)c1c(NC(=O)CN(c2ccccc2)S(C)(=O)=O)sc2c1CCCC2,"15.8 µM [rising, partial curve]","11.2 µM [rising, partial curve, poor fit]"
CCN(CC)S(=O)(=O)c1ccc2c(c1)nc(CN(C)C(=O)Nc1ccc(Cl)cc1)n2C,"10 µM [falling, partial curve, poor fit]",–
COc1ccccc1N1CCN(C(=O)c2ccc(C(C)(C)C)cc2)CC1,"22.4 µM [rising, single point]",–
O=[N+]([O-])c1ccccc1/C=N/n1c(-c2cccnc2)n[nH]c1=S,"0.126 µM [rising, partial curve, poor fit]",–
COc1cc(/C=C/C2=CC(C)(C)NC(=S)N2)cc(OC)c1OC,–,"1 µM [falling, full curve, poor fit]"
CCCNC(=O)c1nc(C)n(-c2ccc([N+](=O)[O-])cc2)n1,"11.2 µM [falling, single point]",–

Structure (SMILES),AC50 [1],AC50 [2]
CCOP(=O)(OCC)C(Nc1ccc([N+](=O)[O-])cc1)c1ccc(Cl)cc1 (stereo unspecified),–,"8.91 µM [falling, partial curve, poor fit]"
O=S(=O)(c1ccc(NC2CCCc3ccccc32)nc1)N1CCOCC1 (stereo unspecified),"31.6 µM [rising, single point]",–
CCCN(CCC)S(=O)(=O)c1ccc2c(c1)N(CC(=O)NCc1ccc(F)cc1Cl)C(=O)CS2,–,"17.8 µM [falling, partial curve, poor fit]"
OCC1(Cc2ccccc2)CCCN(Cc2cnn(-c3ccccc3)c2)C1 (stereo unspecified),"0.891 µM [falling, partial curve]","15.8 µM [falling, partial curve]"
COC(=O)c1ccc(CSc2ncnc3ccccc23)o1,–,"35.5 µM [falling, single point]"
NC(=S)n1[nH]c(-c2ccc([N+](=O)[O-])cc2)c(N=Nc2cccc([N+](=O)[O-])c2)c1=O,"12.6 µM [falling, single point]","35.5 µM [falling, single point]"
O=C(/C=C/c1ccc([N+](=O)[O-])cc1)NCc1cccs1,"15.8 µM [rising, single point]","11.2 µM [rising, partial curve]"
CCCC(=O)Nc1ccc(N2CCN(C(=O)c3ccccc3C)CC2)cc1,–,"25.1 µM [falling, single point]"
CN(C)C(=O)c1ccc(-c2ccc3ncnc(NCc4ccccc4)c3c2)cc1,–,"15.8 µM [falling, single point]"
CCOc1ccc(OCc2cccc(C(=O)Nc3ccc(CN4CCCCC4)cc3)c2)cc1,"25.1 µM [rising, single point]","14.1 µM [rising, single point]"
O=C(Nc1cccc(Cl)c1)N(CCN1CCOCC1)Cc1cccc(Cl)c1,"35.5 µM [rising, single point]",–
Cc1ccc(S(=O)(=O)c2c(C(=O)c3ccccc3)cnc3cc4c(cc23)OCCO4)cc1,"5.01 µM [rising, full curve]",–
CC1(C)C(=O)OC(/C=C\c2ccccc2)C(C)(C)C1=O (stereo unspecified),"3.98 µM [rising, partial curve, poor fit]",–
COc1ccc(NC(=O)Nc2nc3c(s2)CCCC3)cc1,"11.2 µM [rising, partial curve]",–
Cc1nn(C)cc1CN(C)Cc1ccc(OCC(O)CN2CCCCC2)cc1 (stereo unspecified),"0.0224 µM [rising, full curve, poor fit]","0.0224 µM [rising, full curve, poor fit]"
O=C(CSc1nc(-c2ccccc2)cs1)Nc1cccc([N+](=O)[O-])c1,"3.55 µM [rising, single point]",–
Cc1ccc(C(=O)Nc2ccc(S(=O)(=O)O)c3cc(S(=O)(=O)O)cc(S(=O)(=O)O)c23)cc1NC(=O)c1cccc(NC(=O)Nc2cccc(C(=O)Nc3cc(C(=O)Nc4ccc(S(=O)(=O)O)c5cc(S(=O)(=O)O)cc(S(=O)(=O)O)c45)ccc3C)c2)c1,–,"0.708 µM [rising, full curve]"
Cn1cc(C2=C(c3ccc(Cl)cc3Cl)C(=O)NC2=O)c2ccccc21,"6.31 µM [rising, full curve]","12.6 µM [falling, partial curve, poor fit]"
